Test results reported in paper doi:10.1101/2023.02.20.529182.
No constants are given. Whether binding was seen depends on the method and setting. Binding seen in cells or lysates may run through a third protein. Here binding means that the protein was enriched with, or labelled near, the bait; the list need not be complete.

Molecular target: DjlA variant with a C-terminal HA-tag (DjlA-HA) (C. crescentus)
Assay: affinity purification with mass spectrometry

In the case of AcrB (from UniProt A0A0H3CCS3), the binding is reported as “binds”.
